Data reported in patent CN116262786A.
No constants are given. Whether binding was seen depends on the method and setting. Some entries that bind do so weakly or less than the wild type.

B1: 3B3-hFC1 (Fc fusion, human, not shown: a dimerising Fc or GST; small tags and cut ends)
chain: QVQLVESGGGSVQAGGSLRLSCAASGYTYRRLSMGWFRQAPGKEREAVGGIYTGESMTYYADSVRGRFTISQDNAQNTVYLQMNSLKPEDTATYYCAATPQFLIGSGLLRPDKYDSWGQGTQVTVSS
B2: 4E11-hFC1 (Fc fusion, human, not shown: a dimerising Fc or GST; small tags and cut ends)
chain: QVQLVESGGGSVQAGGSLRLSCAVSGYTYSSNSMGWFRQAPGKEREGVAAIYTGGGSTYYADSVKGRFTISQDNAKNTVYLQMNSLKPEDTAMYYCAAGGPTWYDGSWSRGDEYTYWGQGTQVTVSS
B3: 2D8-hFC1 (Fc fusion, human, not shown: a dimerising Fc or GST; small tags and cut ends)
chain: QVQLVESGGGSVQAGGSLRLSCAASDYTYRRYCMGWFRQAPGKEREKVAAIYLGDGTTYYTDSVKGRFTISQENAKNTIYLQMNNLKPEDTAMYYCAADRSGCSVTWSYSAFEDWGQGTQVTVSS
B4: 4B10-hFC1 (Fc fusion, human, not shown: a dimerising Fc or GST; small tags and cut ends)
chain: QVQLVESGGGLVQAGGSLRLSCTASGFTFDDYAMGWFRQAPGKEREGVSCISWNGGSTFYADSVKGRFTIVRDNAKNTVYLEMNSLKPEDTAMYYCAALAYCSGGHWSPGDLSGGYWGQGTQVTVSS
B5: 2E5-hFC1 (Fc fusion, human, not shown: a dimerising Fc or GST; small tags and cut ends)
chain: QVQLVESGGGSVQAGGSLRLSCAASGYPYHRVSMGWFRQAPGKEREGVAGIYTGGLYTGGSMTYYADSVKGRFTISQDNARNTVYLQMNSLKPEDTAMYYCAATPQFLIGSGLLRPDKYNSWGQGTQVTVSS
B6: 1D11-hFC1 (Fc fusion, human, not shown: a dimerising Fc or GST; small tags and cut ends)
chain: QVQLVESGGGSVQAGGSLRLSCAASGDTYSSACMDWFRQAPGKEREGVAGISSGGSTYYADSVKGRFTISRDNAKNTLYLQMNSLKPEDTAMYYCAARRVGRIPCRTMLPGLQDYWGQGTQVTVSS

Biological target: 食蟹猴FOLR1 (食蟹猴 (cynomolgus monkey))
Experiment: ELISA, coated FOLR1 of each species 1 μg/mL, VHH-hFc titrated from 2 μg/mL, goat anti-human IgG-HRP

binding, binds:
B1
B2
B3
B4
B5
B6
